In PubChem BioAssay AID248 (DTP/NCI, 2004):
The list does not hold the whole screen: it is rich in T/C values a quarter to a half above the control, in often repeated tests (any T/C) and in doses without a T/C. Other doses and runs of a compound stand elsewhere. T/C gives the treated animals as a percentage of the vehicle group. Some doses have a count of surviving animals in place of a T/C: the source files T/C as zero there, which appears to mark a toxic dose or a test without result, not a measured value. Some doses without a T/C left all or most animals alive at the check, yet need not have been tolerated: the source hardly ever lists a survival T/C far under the control, and the zero likely stands for such cases as well. Survivors were counted at the toxicity check, usually on the fifth day, unless a day is given; later deaths do not show. Schedule codes are those of the source, read here as Q, the interval in days (D) or hours (H), X, the number of doses. Where survival is the endpoint, the PubChem record calls one and a half times the control and up active, and a quarter to a half above the control has no call in these data; cut-offs in other NCI protocols can differ. Some T/C values carry the count of animals alive at the toxicity check (mostly the fifth day); without a count, all were alive then. Some entries hold several experiments; the results are listed from low to high.

System: L1210 leukemia ip in BDF1 mice, survival T/C
Experiment: NCI In Vivo Anticancer Drug Screen. Data for tumor model L1210 Leukemia (intraperitoneal) in B6D2F1 (BDF1) mice
Settings: higher T/C = longer survival

SMILES: COc1cc2cc3c4cc(OC)c(OC)cc4cc[n+]3c(C)c2cc1OC (tested in a mixture with another compound)
- T/C (T/C endpoint: mean survival time, dose: 8.0 mg/kg/injection, schedule: Q03HX008 (ip), vehicle: saline): 125 % of control [9 of 10 alive]
- T/C (T/C endpoint: mean survival time, dose: 8.0 mg/kg/injection, schedule: Q03HX024 (ip), vehicle: saline): 125 % of control
- T/C (T/C endpoint: mean survival time, dose: 16.0 mg/kg/injection, schedule: Q01DX009 (ip), vehicle: other): 127 % of control
- T/C (T/C endpoint: mean survival time, dose: 16.0 mg/kg/injection, schedule: Q01DX009 (ip), vehicle: saline): 128 % of control
- T/C (T/C endpoint: mean survival time, dose: 16.0 mg/kg/injection, schedule: Q03HX008 (ip), vehicle: saline): 128 % of control
- survivor count (T/C endpoint: mean survival time, dose: 20.0 mg/kg/injection, schedule: Q01DX009 (ip), vehicle: saline): 3 of 6
- T/C (T/C endpoint: mean survival time, dose: 25.0 mg/kg/injection, schedule: Q01DX009 (ip), vehicle: saline with Tween-80): 125 % of control
- T/C (T/C endpoint: mean survival time, dose: 32.0 mg/kg/injection, schedule: Q01DX009 (ip), vehicle: clinical formulation): 142 % of control
- T/C (T/C endpoint: mean survival time, dose: 32.0 mg/kg/injection, schedule: Q01DX009 (ip), vehicle: saline): 132 % of control
- T/C (T/C endpoint: mean survival time, dose: 32.0 mg/kg/injection, schedule: Q03HX008 (ip), vehicle: saline): 128 % of control
- T/C (T/C endpoint: mean survival time, dose: 32.0 mg/kg/injection, schedule: Q03HX016 (ip), vehicle: saline): 131 % of control
- T/C (T/C endpoint: mean survival time, dose: 32.0 mg/kg/injection, schedule: Q03HX024 (ip), vehicle: saline): 126 % of control
- T/C (T/C endpoint: mean survival time, dose: 50.0 mg/kg/injection, schedule: Q01DX009 (ip), vehicle: saline with Tween-80): 127 % of control
- T/C (T/C endpoint: mean survival time, dose: 64.0 mg/kg/injection, schedule: Q01DX009 (ip), vehicle: Klucel (hydroxypropylcellulose) (HPC)): 130 % of control
- T/C (T/C endpoint: mean survival time, dose: 64.0 mg/kg/injection, schedule: Q01DX009 (ip), vehicle: other): 136 % of control
- T/C (T/C endpoint: mean survival time, dose: 64.0 mg/kg/injection, schedule: Q01DX009 (ip), vehicle: saline): 134 % of control [8 of 10 alive]
- T/C (T/C endpoint: mean survival time, dose: 64.0 mg/kg/injection, schedule: Q03HX008 (ip), vehicle: saline): 137 % of control [8 of 10 alive]
- T/C (T/C endpoint: mean survival time, dose: 64.0 mg/kg/injection, schedule: Q04DX003 (ip), vehicle: saline): 125 % of control
- T/C (T/C endpoint: mean survival time, dose: 80.0 mg/kg/injection, schedule: Q01DX009 (ip), vehicle: saline): 126 % of control [5 of 6 alive]
- T/C (T/C endpoint: mean survival time, dose: 100.0 mg/kg/injection, schedule: Q04DX002 (ip), vehicle: saline): 126 % of control
- T/C (T/C endpoint: mean survival time, dose: 100.0 mg/kg/injection, schedule: Q04DX003 (ip), vehicle: saline with Tween-80): 132 % of control
- T/C (T/C endpoint: mean survival time, dose: 128.0 mg/kg/injection, schedule: Q01DX001 (ip), vehicle: saline): 133 % of control [8 of 10 alive]
- survivor count (T/C endpoint: mean survival time, dose: 128.0 mg/kg/injection, schedule: Q01DX009 (ip), vehicle: clinical formulation): 8 of 10
- T/C (T/C endpoint: mean survival time, dose: 128.0 mg/kg/injection, schedule: Q01DX009 (ip), vehicle: other): 142 % of control
- T/C (T/C endpoint: mean survival time, dose: 128.0 mg/kg/injection, schedule: Q04DX003 (ip), vehicle: saline): 126 % of control [9 of 10 alive]
- T/C (T/C endpoint: mean survival time, dose: 160.0 mg/kg/injection, schedule: Q01DX009 (ip), vehicle: saline): 125 and 136 % of control [5 of 6 alive]
- survivor count (T/C endpoint: mean survival time, dose: 200.0 mg/kg/injection, schedule: Q01DX009 (ip), vehicle: saline with Tween-80): 2 of 6
- T/C (T/C endpoint: mean survival time, dose: 200.0 mg/kg/injection, schedule: Q04DX003 (ip), vehicle: saline with Tween-80): 131 % of control
- T/C (T/C endpoint: mean survival time, dose: 256.0 mg/kg/injection, schedule: Q01DX001 (ip), vehicle: saline): 140 % of control [8 of 10 alive]
- survivor count (T/C endpoint: mean survival time, dose: 256.0 mg/kg/injection, schedule: Q01DX009 (ip), vehicle: Klucel (hydroxypropylcellulose) (HPC)): 1 of 10
- survivor count (T/C endpoint: mean survival time, dose: 256.0 mg/kg/injection, schedule: Q01DX009 (ip), vehicle: clinical formulation): 1 of 10
- survivor count (T/C endpoint: mean survival time, dose: 256.0 mg/kg/injection, schedule: Q01DX009 (ip), vehicle: other): 1 of 10
- T/C (T/C endpoint: mean survival time, dose: 256.0 mg/kg/injection, schedule: Q08DX002 (ip), vehicle: saline): 134 % of control [8 of 10 alive]
- survivor count (T/C endpoint: mean survival time, dose: 400.0 mg/kg/injection, schedule: Q01DX009 (ip), vehicle: saline with Tween-80): 0 of 6
- T/C (T/C endpoint: mean survival time, dose: 400.0 mg/kg/injection, schedule: Q04DX002 (ip), vehicle: saline): 126 % of control
- survivor count (T/C endpoint: mean survival time, dose: 400.0 mg/kg/injection, schedule: Q04DX003 (ip), vehicle: saline with Tween-80): 3 of 6
- survivor count (T/C endpoint: mean survival time, dose: 512.0 mg/kg/injection, schedule: Q04DX003 (ip), vehicle: saline): 9 of 10
- survivor count (T/C endpoint: mean survival time, dose: 800.0 mg/kg/injection, schedule: Q01DX009 (ip), vehicle: saline with Tween-80): 0 of 6
- survivor count (T/C endpoint: mean survival time, dose: 800.0 mg/kg/injection, schedule: Q04DX003 (ip), vehicle: saline with Tween-80): 0 of 6
- T/C (T/C endpoint: median survival time, dose: 8.0 mg/kg/injection, schedule: Q03HX024 (ip), vehicle: other): 131 % of control
- T/C (T/C endpoint: median survival time, dose: 16.0 mg/kg/injection, schedule: Q03HX016 (ip), vehicle: other): 125 % of control
- T/C (T/C endpoint: median survival time, dose: 32.0 mg/kg/injection, schedule: Q01DX009 (ip), vehicle: clinical formulation): 127 % of control
- T/C (T/C endpoint: median survival time, dose: 32.0 mg/kg/injection, schedule: Q01DX009 (ip), vehicle: other): 136 % of control
- T/C (T/C endpoint: median survival time, dose: 32.0 mg/kg/injection, schedule: Q03HX008 (ip), vehicle: other): 130 % of control [9 of 10 alive]
- T/C (T/C endpoint: median survival time, dose: 32.0 mg/kg/injection, schedule: Q03HX016 (ip), vehicle: other): 135 % of control
- T/C (T/C endpoint: median survival time, dose: 32.0 mg/kg/injection, schedule: Q03HX024 (ip), vehicle: other): 147 % of control
- T/C (T/C endpoint: median survival time, dose: 64.0 mg/kg/injection, schedule: Q01DX009 (ip), vehicle: Klucel (hydroxypropylcellulose) (HPC)): 127 % of control
- T/C (T/C endpoint: median survival time, dose: 64.0 mg/kg/injection, schedule: Q01DX009 (ip), vehicle: clinical formulation): 147 % of control
- T/C (T/C endpoint: median survival time, dose: 64.0 mg/kg/injection, schedule: Q01DX009 (ip), vehicle: other): 130 % of control
- T/C (T/C endpoint: median survival time, dose: 64.0 mg/kg/injection, schedule: Q01DX009 (ip), vehicle: water): 127 % of control
- survivor count (T/C endpoint: median survival time, dose: 64.0 mg/kg/injection, schedule: Q03HX008 (ip), vehicle: other): 3 of 10
- survivor count (T/C endpoint: median survival time, dose: 64.0 mg/kg/injection, schedule: Q03HX016 (ip), vehicle: other): 5 of 10
- survivor count (T/C endpoint: median survival time, dose: 64.0 mg/kg/injection, schedule: Q03HX024 (ip), vehicle: other): 6 of 10
- T/C (T/C endpoint: median survival time, dose: 64.0 mg/kg/injection, schedule: Q04DX003 (ip), vehicle: other): 127 % of control
- survivor count (T/C endpoint: median survival time, dose: 128.0 mg/kg/injection, schedule: Q01DX009 (ip), vehicle: Klucel (hydroxypropylcellulose) (HPC)): 6 of 10
- survivor count (T/C endpoint: median survival time, dose: 128.0 mg/kg/injection, schedule: Q01DX009 (ip), vehicle: clinical formulation): 0 of 10
- survivor count (T/C endpoint: median survival time, dose: 128.0 mg/kg/injection, schedule: Q01DX009 (ip), vehicle: other): 9 of 10
- survivor count (T/C endpoint: median survival time, dose: 128.0 mg/kg/injection, schedule: Q03HX008 (ip), vehicle: other): 0 of 10
- T/C (T/C endpoint: median survival time, dose: 128.0 mg/kg/injection, schedule: Q04DX003 (ip), vehicle: other): 131 % of control
- T/C (T/C endpoint: median survival time, dose: 128.0 mg/kg/injection, schedule: Q08DX002 (ip), vehicle: other): 133 % of control
- T/C (T/C endpoint: median survival time, dose: 256.0 mg/kg/injection, schedule: Q01DX001 (ip), vehicle: other): 137 % of control
- survivor count (T/C endpoint: median survival time, dose: 256.0 mg/kg/injection, schedule: Q01DX009 (ip), vehicle: Klucel (hydroxypropylcellulose) (HPC)): 0 of 10
- survivor count (T/C endpoint: median survival time, dose: 256.0 mg/kg/injection, schedule: Q01DX009 (ip), vehicle: clinical formulation): 0 of 10
- survivor count (T/C endpoint: median survival time, dose: 256.0 mg/kg/injection, schedule: Q01DX009 (ip), vehicle: other): 0 of 10
- survivor count (T/C endpoint: median survival time, dose: 256.0 mg/kg/injection, schedule: Q01DX009 (ip), vehicle: water): 0 of 10
- T/C (T/C endpoint: median survival time, dose: 256.0 mg/kg/injection, schedule: Q04DX003 (ip), vehicle: other): 145 % of control [9 of 10 alive]
- T/C (T/C endpoint: median survival time, dose: 256.0 mg/kg/injection, schedule: Q08DX002 (ip), vehicle: other): 147 % of control [9 of 10 alive]
- survivor count (T/C endpoint: median survival time, dose: 512.0 mg/kg/injection, schedule: Q01DX001 (ip), vehicle: other): 0 of 10
- survivor count (T/C endpoint: median survival time, dose: 512.0 mg/kg/injection, schedule: Q04DX003 (ip), vehicle: other): 0 of 10
- survivor count (T/C endpoint: median survival time, dose: 1024.0 mg/kg/injection, schedule: Q01DX001 (ip), vehicle: other): 1 of 10
- survivor count (T/C endpoint: median survival time, dose: 1024.0 mg/kg/injection, schedule: Q01DX001 (sc), vehicle: other): 3 of 10
